No constants are given. Whether binding was seen depends on the method and setting. Binding seen in cells or lysates may run through a third protein. Some entries that bind do so weakly or less than the wild type.
Key:
[1] = target: cyclin B (human (endogenous in HCT116)) (UniProt P14635); test: condition: only cells arrested in mitosis following an 18-hour treatment with colchicine; co-IP; cyclin B immunoprecipitated with anti-cyclin B1 antibodies (Santa Cruz) from lysate of HCT116 cells arrested in mitosis with colchicine (0.5 ug/ml, 18 hours); blot with anti-hCdc14A (Ab-2)
[2] = target: cyclin B (human (endogenous in HCT116)) (UniProt P14635); test: co-IP; cyclin B immunoprecipitated with anti-cyclin B1 antibodies (Santa Cruz) from lysate of mock-treated (asynchronized) HCT116 cells; blots with anti-hCdc14A (Ab-2) and anti-Cdk1; Cdk1 was also recovered from cells treated with colchicine

Amino acid sequences for entries named in this document (tags omitted).
UniProt P14635: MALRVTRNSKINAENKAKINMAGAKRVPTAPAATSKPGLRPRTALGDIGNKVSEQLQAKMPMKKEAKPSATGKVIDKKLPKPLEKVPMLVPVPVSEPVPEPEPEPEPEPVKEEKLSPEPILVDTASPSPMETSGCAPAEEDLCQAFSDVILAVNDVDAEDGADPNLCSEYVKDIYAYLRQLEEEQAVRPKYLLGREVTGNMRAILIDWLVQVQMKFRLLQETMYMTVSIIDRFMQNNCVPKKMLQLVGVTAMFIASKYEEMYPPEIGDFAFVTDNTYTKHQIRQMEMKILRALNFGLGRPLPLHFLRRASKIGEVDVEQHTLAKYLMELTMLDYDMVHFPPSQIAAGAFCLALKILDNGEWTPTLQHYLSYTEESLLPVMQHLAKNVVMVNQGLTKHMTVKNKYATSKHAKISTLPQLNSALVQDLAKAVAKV

binding [1]: no binding | binding [2]: binds
B1: hCdc14A (enzyme, UniProt Q9UNH5 1-594)
chain: MAAESGELIGACEFMKDRLYFATLRNRPKSTVNTHYFSIDEELVYENFYADFGPLNLAMVYRYCCKLNKKLKSYSLSRKKIVHYTCFDQRKRANAAFLIGAYAVIYLKKTPEEAYRALLSGSNPPYLPFRDASFGNCTYNLTILDCLQGIRKGLQHGFFDFETFDVDEYEHYERVENGDFNWIVPGKFLAFSGPHPKSKIENGYPLHAPEAYFPYFKKHNVTAVVRLNKKIYEAKRFTDAGFEHYDLFFIDGSTPSDNIVRRFLNICENTEGAIAVHCKAGLGRTGTLIACYVMKHYRFTHAEIIAWIRICRPGSIIGPQQHFLEEKQASLWVQGDIFRSKLKNRPSSEGSINKILSGLDDMSIGGNLSKTQNMERFGEDNLEDDDVEMKNGITQGDKLRALKSQRQPRTSPSCAFRSDDTKGHPRAVSQPFRLSSSLQGSAVTLKTSKMALSPSATAKRINRTSLSSGATVRSFSINSRLASSLGNLNAATDDPENKKTSSSSKAGFTASPFTNLLNGSSQPTTRNYPELNNNQYNRSSNSNGGNLNSPPGPHSAKTEEHTTILRPSYTGLSSSSARFLSRSIPSLQSEYVHY
